Results: PubChem BioAssay AID1487 (National Center for Advancing Translational Sciences (NCATS), 2009)
This is one part of the list. These are further read-outs of the screen, such as a control signal, another cell line or another target. No call is given for them. Compounds called inactive in the main read-out are mostly missing here. The note in brackets gives the kind of curve behind each potency; many fits are weak.

Test: qHTS Assay for Modulators of Lamin A Splicing
Settings: HeLa LMNA splicing GFP/RFP minigene ratio, 48 h
How it was run: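 S3 HeLa cells stably expressing lamin A-EGFP splicing minigene plus DsRed2, 600 cells/well, 48 h compound exposure at 37C. Laser-scanning cytometry; analysed as GFP (500-530 nm)/RFP (575-640 nm) total intensity ratio; 0.5% DMSO vehicle.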

[1] = measured here: GFP splicing reporter channel
[2] = measured here: RFP viability control channel

SMILES | AC50 [1] | AC50 [2]
CCOc1cc(CC(=O)N[C@@H](CC(C)C)c2ccccc2N2CCCCC2)ccc1C(=O)O | 0.0141 µM [falling, full curve, poor fit] | 0.398 µM [rising, full curve, poor fit]
Cc1nc(C)c(-c2ccc(SCC(=O)Nc3ccc(Cl)c(Cl)c3)nn2)s1 | 35.5 µM [falling, partial curve, poor fit] | 35.5 µM [falling, partial curve, poor fit]
CC(=O)Oc1ccccc1N(C(C)=O)S(=O)(=O)c1cccc([N+](=O)[O-])c1 | 6.31 µM [falling, single point] | –
CCCCCCCC(=O)NC(Nc1ccccc1OC)C(Cl)(Cl)Cl (centres undefined) | 31.6 µM [rising, single point] | –
COc1cccc(CNC(=O)C2CCN(C(=O)N3CCOc4ccc(Cl)cc43)CC2)c1OC | 10 µM [falling, partial curve, poor fit] | –
CCC12CN3CC(CC)(CN(C1)C31C(=O)N(C)c3ccc(C)cc31)C2=O (centres undefined) | 3.98 µM [falling, partial curve, poor fit] | 0.02 µM [falling, full curve, poor fit]
Cc1cc(OCCCn2ccnc2)ccc1C(C)C | 20 µM [rising, partial curve, poor fit] | 15.8 µM [rising, partial curve]
CCS(=O)(=O)Nc1ccc(C(=O)c2ccccc2)cc1 | – | 0.0447 µM [rising, full curve, poor fit]
CSc1oc(-c2ccccc2)nc1S(=O)(=O)c1ccc(F)cc1 | – | 11.2 µM [rising, partial curve, poor fit]
Cc1cc(C)c2nc(-c3ccccn3)cc(C(=O)Nc3ccc(S(=O)(=O)Nc4onc(C)c4C)cc3)c2c1 | 35.5 µM [falling, single point] | 12.6 µM [falling, partial curve, poor fit]
Cc1nc2c(C(=O)NCc3ccccc3)cnn2c(C)c1Cc1ccc(F)cc1 | 11.2 µM [falling, partial curve] | 11.2 µM [falling, partial curve]
CCOC(=O)n1c(=O)[nH]c2ccc(Br)cc21 | 0.631 µM [rising, single point] | –
COc1ccccc1N(Cc1cc2cccc(C)c2[nH]c1=O)C(=O)C(C)C | – | 35.5 µM [rising, single point]
CCC(C)n1cnc2c(c1=O)c1nc3ccccc3nc1n2Cc1ccc(OC)cc1 (centres undefined) | 35.5 µM [falling, single point] | 35.5 µM [falling, single point]
Cc1ccc(O)c(N=NC2=C(O)CC(C)(C)CC2=O)c1 | 0.0158 µM [rising, full curve, poor fit] | 17.8 µM [rising, partial curve]
O=C(c1cccs1)c1no[n+]([O-])c1C(=O)c1cccs1 | – | 0.0158 µM [falling, full curve, poor fit]
COc1ccc2[nH]cc(CC(=O)O)c2c1 | 0.0708 µM [falling, full curve, poor fit] | –
c1cncc(-c2nc(NCCN3CCOCC3)c3ccccc3n2)c1 | – | 35.5 µM [rising, single point]
COCCOC(=O)/C(=C/c1ccc(OC(=O)c2ccccc2)cc1)C(C)=O | – | 14.1 µM [rising, single point]
O=C(NNC(=O)c1cccc(Br)c1)C(=O)N1CCCCC1 | 0.00447 µM [falling, full curve, poor fit] | 0.00447 µM [falling, full curve, poor fit]
O=C(CCSCCc1ccccn1)Nc1cc(F)ccc1F | 6.31 µM [rising, single point] | –
COc1ccc(C2CC(c3ccccc3OC(C)=O)=NN2C(=O)/C=C/c2ccccc2)cc1OC (centres undefined) | – | 22.4 µM [rising, single point]
CCCC[n+]1c(C)sc2ccc(C)cc21 | 0.0708 µM [rising, full curve, poor fit] | –
COc1ccc(-n2c(C)cc(/C=C3\SC(=S)NC3=O)c2C)cc1 | 35.5 µM [rising, partial curve, poor fit] | –
Cc1ccc(C)c(N2CCN(S(=O)(=O)c3ccc4c(c3)CCC(=O)N4)CC2)c1 | 6.31 µM [rising, single point] | 10 µM [rising, partial curve]
O=C(CSc1ncnc2ccccc12)Nc1ccc2c(c1)OCCO2 | – | 31.6 µM [rising, single point]
COc1ccc(Cl)cc1NC(=O)c1cc(-c2ccccc2O)n[nH]1 | 2.51 µM [falling, partial curve, poor fit] | –

SMILES | AC50 [1] | AC50 [2]
Cc1ccc(C)c(N2CCN(C(=O)C3CCCCN3S(=O)(=O)c3ccc(F)cc3)CC2)c1 (centres undefined) | – | 31.6 µM [rising, single point]
CCCCOc1ccc(S(=O)(=O)Nc2cc(OC)ccc2OC)cc1 | 11.2 µM [rising, partial curve] | 11.2 µM [rising, partial curve]
Cn1nc(C(F)(F)F)c(C(=O)Nc2ccc(F)cc2F)c1Cl | 0.00562 µM [rising, full curve, poor fit] | 0.00447 µM [rising, full curve, poor fit]
CCCOC(=O)/C(=C\c1ccc([N+](=O)[O-])o1)NC(=O)c1ccccc1 | – | 35.5 µM [rising, single point]
O=c1c(-c2ccc(Cl)cc2)nc2cnc(N3CCNCC3)nc2n1-c1ccccc1 | 17.8 µM [falling, partial curve] | 12.6 µM [falling, partial curve]
CSC(=S)N/N=C/c1ccccc1 | 0.355 µM [rising, full curve, poor fit] | 4.47 µM [rising, partial curve]
Cn1c(N/N=C/c2cc3ccccc3nc2Cl)nc2ccccc21 | – | 4.47 µM [rising, full curve]
N#Cc1cc2c(nc1SCC1COc3ccccc3O1)CCC2 (centres undefined) | 11.2 µM [rising, single point] | 14.1 µM [rising, single point]
CN1/C(=C\C(=O)CSc2ncn[nH]2)C(C)(C)c2ccccc21 | 17.8 µM [rising, single point] | 35.5 µM [rising, single point]
Cc1ccc(NC(=O)C(=O)NC(C)C2COc3ccccc3O2)cc1 (centres undefined) | – | 20 µM [falling, single point]
S=c1[nH]nc(Cn2nnc3ccccc32)n1-c1ccccc1 | 5.01 µM [rising, partial curve, poor fit] | 2.82 µM [rising, partial curve]
Cc1cc(C(=O)NCC2COc3ccccc3O2)c2ccccc2n1 (centres undefined) | 25.1 µM [falling, partial curve, poor fit] | 0.00447 µM [falling, full curve, poor fit]
CCN1CCCC1CNC(=O)c1ccc(Sc2ccccc2Cl)c([N+](=O)[O-])c1 (centres undefined) | 35.5 µM [rising, single point] | 35.5 µM [rising, single point]
Cc1sc2ncnc(NCCN3CCOCC3)c2c1C | – | 14.1 µM [rising, single point]
O=C(CCc1ccc(CCC(=O)c2cccs2)s1)c1cccs1 | – | 35.5 µM [rising, single point]
CC(=O)c1sc(Nc2nc3cc4c(cc3s2)OCO4)nc1C | – | 5.01 µM [rising, full curve, poor fit]
Cc1c(Cl)cccc1NC(=O)c1oc2ccc(S(=O)(=O)N3CCCCCC3)cc2c1C | 0.0708 µM [falling, partial curve, poor fit] | 0.00316 µM [falling, full curve, poor fit]
Cc1sc2ncnc(N3CCN(CCOc4ccc(Cl)cc4)CC3)c2c1C | – | 5.01 µM [rising, partial curve]
N#CC1=C(N)Oc2cc(O)ccc2C1C1CCCCC1 (centres undefined) | 35.5 µM [rising, single point] | 25.1 µM [rising, single point]
CCOc1ccc(C2C(=O)N(C3CCCCCC3)CC(=O)N2Cc2ccc(C)cc2)cc1OC (centres undefined) | – | 0.631 µM [falling, full curve, poor fit]
O=C(Nc1nc2ccccc2s1)C1CCCN1S(=O)(=O)c1ccc(Cl)cc1 (centres undefined) | 15.8 µM [rising, single point] | 15.8 µM [rising, partial curve]
COc1ccc(C(=O)c2ccccc2)c(O)c1 | 0.000891 µM [falling, full curve, poor fit] | 35.5 µM [rising, single point]
CCN(CC)C(=O)N(CC)Cc1ccccc1 | 0.0282 µM [falling, full curve, poor fit] | 2.82 µM [falling, single point]
c1ccc(COC2CCCN(Cc3nc(Cc4ccccc4)no3)C2)cc1 (centres undefined) | – | 35.5 µM [rising, single point]
O=C(Nc1cccc(S(=O)(=O)N2CCOCC2)c1)c1ccc2c(=O)n3c(nc2c1)CCCCC3 | 0.562 µM [rising, full curve, poor fit] | 2.24 µM [rising, partial curve, poor fit]
C[N+](C)(CCCOc1ccccc1)c1ccccc1 | 0.316 µM [falling, full curve, poor fit] | 0.316 µM [falling, full curve, poor fit]

A stretch from the list above, as a working copy:
SMILES | AC50 [1] | AC50 [2]
CCOc1ccc(C2C(=O)N(C3CCCCCC3)CC(=O)N2Cc2ccc(C)cc2)cc1OC (centres undefined) | – | 0.631 µM [falling, full curve, poor fit]
O=C(Nc1nc2ccccc2s1)C1CCCN1S(=O)(=O)c1ccc(Cl)cc1 (centres undefined) | 15.8 µM [rising, single point] | 15.8 µM [rising, partial curve]
COc1ccc(C(=O)c2ccccc2)c(O)c1 | 0.000891 µM [falling, full curve, poor fit] | 35.5 µM [rising, single point]
CCN(CC)C(=O)N(CC)Cc1ccccc1 | 0.0282 µM [falling, full curve, poor fit] | 2.82 µM [falling, single point]
